The match of structure and compound is tentative.
Experiments:
[1] = Pharmacokinetic studies of compounds in mice; settings: male mice, intragastric administration 10 mg/kg, plasma
Procedure: Activity Assay Example 3: Pharmacokinetic Studies of Compounds in Mice
In this test, 3 male mice were selected and divided into 1 group, 3 mice/group. All animals were fasted overnight before administration.
The intragastric administration dose was 10 mg/kg, and the administration volume was 10 mL/kg.
2.2 Preparation of Drug Solution
According to the animal body weight combined with the administration dose, the amount of the required drug solution was calculated. […]
Before administration, the animals were weighed and the body weight of the animals involved in the experiment was recorded, and the administration volume of each animal was calculated according to the body weight. […]
After administration, whether animals had abnormal reactions was observed immediately. […] If abnormal reactions were found, they should be recorded in time, and the number of observations should be increased until the animals returned to normal or to the end of the experiment. […]
The collected plasma samples were handed over to the Pharmacokinetic department for sample extraction, and the test substances in the plasma were extracted by protein precipitation method using organic reagents containing internal standards (acetonitrile:plasma=4:1, v/v). The extracted processed samples were submitted for quantitative concentration analysis by LC-MS/MS. […]

Sequences of proteins named here, by UniProt entry; tags and fusion partners are left off.
UniProt P10275, whole entry T878A: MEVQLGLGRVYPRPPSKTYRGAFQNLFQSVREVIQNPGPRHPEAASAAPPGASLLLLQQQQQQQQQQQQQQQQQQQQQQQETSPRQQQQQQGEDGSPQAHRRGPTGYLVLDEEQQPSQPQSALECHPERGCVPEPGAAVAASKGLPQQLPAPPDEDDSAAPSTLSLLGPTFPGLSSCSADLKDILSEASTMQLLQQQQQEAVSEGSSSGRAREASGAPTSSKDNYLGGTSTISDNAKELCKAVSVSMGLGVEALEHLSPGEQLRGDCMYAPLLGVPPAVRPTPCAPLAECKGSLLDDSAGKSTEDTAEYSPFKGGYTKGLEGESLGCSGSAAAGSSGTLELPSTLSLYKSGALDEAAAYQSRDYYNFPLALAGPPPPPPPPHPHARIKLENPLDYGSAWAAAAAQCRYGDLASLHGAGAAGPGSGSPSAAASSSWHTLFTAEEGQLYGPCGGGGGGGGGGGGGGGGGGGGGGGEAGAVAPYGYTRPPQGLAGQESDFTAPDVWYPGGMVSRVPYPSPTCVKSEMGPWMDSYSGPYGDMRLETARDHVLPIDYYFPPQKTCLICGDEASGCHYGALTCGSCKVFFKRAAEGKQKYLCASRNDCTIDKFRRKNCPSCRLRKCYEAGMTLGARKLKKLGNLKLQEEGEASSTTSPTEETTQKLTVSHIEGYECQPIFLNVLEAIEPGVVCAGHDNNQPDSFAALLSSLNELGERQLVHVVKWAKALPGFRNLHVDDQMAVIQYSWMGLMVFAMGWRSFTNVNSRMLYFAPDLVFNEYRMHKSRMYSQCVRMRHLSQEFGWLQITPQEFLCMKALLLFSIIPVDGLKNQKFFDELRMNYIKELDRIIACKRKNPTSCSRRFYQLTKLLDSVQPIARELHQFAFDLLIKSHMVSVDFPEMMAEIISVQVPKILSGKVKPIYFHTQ

[2] = biological target: AR (Homo sapiens, UniProt P10275, T878A); assay: Effects of compounds on AR expression in LNCaP cells (ELISA, DC50); settings: read-out: LNCaP DC50, 24 hours of drug treatment, AR by ELISA
Procedure: Activity Assay Example 1: Effects of Compounds on AR Expression in LNCaP Cells
1. Cell Line and Cell Culture
Human prostate cancer cells LNCaP (Shanghai Chinese Academy of Sciences Cell Bank). LNCaP was cultured in 1640 medium containing 10% fetal bovine serum. The cells grow in clusters, with weak adhesion to the bottom of the culture flask, slow proliferation, with a multiplication time of 72 h. The cells are closely adhered to each other and need to be digested with 0.05% trypsin containing 0.025% EDTA. The cells were passaged every 3 days. The cells were cultured at 37° C. and 5% CO2 in a humidified incubator
2. Cell plating: The supernatant was discarded, and the Lncap cells in the logarithmic growth phase were taken, washed with PBS once, and added with appropriate 0.05% trypsin digestion solution to be fully digested into single cell suspension, and centrifuged, resuspended and counted to make the number of cells about 15,000 per well, then inoculated in a 96-well plate, placed at 37° C., 5% CO2 and cultured overnight for 24 h.
3. Preparation and Addition of Compound Solutions […]
4.6 The reaction wells were added with 100 ul/well of stop solution, mixed well and then the OD450 value was measured with a microplate reader. […]

Q: With `Cc1ncsc1-c1ccc(CNC(=O)[C@@H]2C[C@@H](O)CN2C(=O)[C@@H](NC(=O)COCCOc2ccc(-c3ccc(N4C(=S)N(c5ccc(C#N)c(C(F)(F)F)c5F)C(=O)C4(C)C)cn3)cc2F)C(C)(C)C)cc1` as the compound, how does the “eAUC0.5-2 h” value [1] read?
A: 191 ± 154 ng·h/mL

Q: And the DC50 [2]?
A: 46.4 nM

Source: patent US12606552B2, “Bifunctional compound, preparation method therefor, and use thereof” (SUZHOU KINTOR PHARMACEUTICALS, INC., priority 2020, dated 2026)
